The source of these data is article PMC9369335 (International Journal of Molecular Sciences, 2022).

HELM strings list residues between dots; [ac] is acetyl, [am] amide, other brackets name non-standard units. The same purity stands for every peptide and may come from a single statement.

The data set can be described thus: general procedure: Fmoc solid-phase peptide synthesis; Rink-amide-aminomethyl polystyrene (AM-PS) resin; HBTU/HOBt, DIEA. The note with it: whole synthesis.
As to “PEPTIDE1{[FITC].[Ahx].[Dab(T)].R.[Dab(T)].R.[Dab(T)].R.[Dab(T)].R.[Dab(T)].R.[Dab(T)].R.[am]}$$$$V2.0”, the “final HPLC purity” value was no less than 95% and the isolated yield amounted to 60%.

For “PEPTIDE1{[ac].[Dab(T)].R.[Dab(T)].R.[Dab(T)].R.[Dab(T)].R.[Dab(T)].R.[Dab(T)].R.[am]}$$$$V2.0”, the “final HPLC purity” value is listed as no less than 95% and the isolated yield is 71%.

In the case of “PEPTIDE1{[ac].[Dap(T)].R.[Dap(T)].R.[Dap(T)].R.[Dap(T)].R.[Dap(T)].R.[Dap(T)].R.[am]}$$$$V2.0”, the “final HPLC purity” value is reported as no less than 95% and the isolated yield is listed as 69%.

For the substance “PEPTIDE1{[ac].[Lys(T)].D.[Lys(T)].D.[Lys(T)].D.[Lys(T)].D.[Lys(T)].D.[Lys(T)].D.[am]}$$$$V2.0”, the “final HPLC purity” value was no less than 95% and the isolated yield is 56%.

Consider “PEPTIDE1{[ac].[Lys(T)].E.[Lys(T)].E.[Lys(T)].E.[Lys(T)].E.[Lys(T)].E.[Lys(T)].E.[am]}$$$$V2.0”, for which the “final HPLC purity” value is on record as no less than 95% and the isolated yield turned out to be 61%.

Take “PEPTIDE1{[ac].[Lys(T)].H.[Lys(T)].H.[Lys(T)].H.[Lys(T)].H.[Lys(T)].H.[Lys(T)].H.[am]}$$$$V2.0”: the “final HPLC purity” value was no less than 95% and the isolated yield is 68%.

For the substance “PEPTIDE1{[ac].[Lys(T)].K.[Lys(T)].K.[Lys(T)].K.[Lys(T)].K.[Lys(T)].K.[Lys(T)].K.[am]}$$$$V2.0”, the “final HPLC purity” value is no less than 95% and the isolated yield is recorded as 72%.

On to “PEPTIDE1{[ac].[Lys(T)].R.[Lys(T)].R.[Lys(T)].R.[Lys(T)].R.[Lys(T)].R.[Lys(T)].R.[am]}$$$$V2.0”, for which the “final HPLC purity” value is on record as no less than 95% and the isolated yield turned out to be 79%.

Take “PEPTIDE1{[ac].[Orn(T)].R.[Orn(T)].R.[Orn(T)].R.[Orn(T)].R.[Orn(T)].R.[Orn(T)].R.[am]}$$$$V2.0”: the “final HPLC purity” value is given as no less than 95% and the isolated yield is listed as 77%.
